PubChem BioAssay AID1671195 – Yale University | 2021
The whole screen tested about 22,000 reagents; shown is a random part of them. In the full data, about 1,510 (6.9%) were called active. 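Active includes knockdowns raising or lowering LDL uptake; positive z-scores mean more uptake, negative mean less.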

- Test: 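Genes whose knockdown alters LDL uptake in liver cancer cells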 (primary screen)
- System: human Huh7 hepatoma cells
- Knock-down reagent: siRNA pool against human genes, 18 nM
- Time to read-out: about 2 to 2.5 days of knockdown, then 8 h LDL uptake
- Conditions: DiI-labelled LDL at 30 µg/ml for 8 h, in lipoprotein-deficient serum medium
- Measured: 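Per-cell DiI-LDL intensity by automated imaging; well means scaled to the plate median and given as a robust z-score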
- Scale: robust z-score: higher = more LDL uptake after knockdown
- Active means: 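a gene counts as active if at least two replicate z-scores exceed ±2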

Depletion of TMEM120B resulted in: robust z-score, replicate 1 = 2.34; robust z-score, replicate 2 = 3.72; robust z-score, replicate 3 = 1.21; active.
PLEKHG3 showed robust z-score, replicate 1 = -1.16; robust z-score, replicate 2 = -1.11; robust z-score, replicate 3 = 0.23; inactive.
After knock-down of CCDC43 the results were robust z-score, replicate 1 = 1.32; robust z-score, replicate 2 = 1.72; robust z-score, replicate 3 = 2.3; inactive.
After knock-down of TSR3, the record shows robust z-score, replicate 1 = 0.257; robust z-score, replicate 2 = 0.571; robust z-score, replicate 3 = -0.606; inactive.
Depletion of LOC389710 (retired record) resulted in: robust z-score, replicate 1 = -0.339; robust z-score, replicate 2 = -0.256; robust z-score, replicate 3 = -0.106; inactive.
Against NDC1, the entry reads robust z-score, replicate 1 = -0.485; robust z-score, replicate 2 = 0.73; robust z-score, replicate 3 = -0.728; inactive.
Depletion of PASK came out at: robust z-score, replicate 1 = 3.25; robust z-score, replicate 2 = 2.76; robust z-score, replicate 3 = 4.66; active.
HNRNPA1P70 scored robust z-score, replicate 1 = 2.63; robust z-score, replicate 2 = 2.12; robust z-score, replicate 3 = 1.94; active.
Knock-down of PON3 gave: robust z-score, replicate 1 = 0.447; robust z-score, replicate 2 = 1; robust z-score, replicate 3 = -2.14; inactive.

Entries listed so far whose target name starts with P or p (3):
PLEKHG3: robust z-score, replicate 1 = -1.16; robust z-score, replicate 2 = -1.11; robust z-score, replicate 3 = 0.23; call = inactive
PASK: robust z-score, replicate 1 = 3.25; robust z-score, replicate 2 = 2.76; robust z-score, replicate 3 = 4.66; call = active
PON3: robust z-score, replicate 1 = 0.447; robust z-score, replicate 2 = 1; robust z-score, replicate 3 = -2.14; call = inactive

Additional results follow:
For GPR137, the entry reads robust z-score, replicate 1 = 0.1; robust z-score, replicate 2 = -0.12; robust z-score, replicate 3 = 0.869; inactive.
HACE1 showed robust z-score, replicate 1 = -0.673; robust z-score, replicate 2 = -0.863; robust z-score, replicate 3 = -0.468; inactive.
Depletion of TRUB1 gave: robust z-score, replicate 1 = 0.275; robust z-score, replicate 2 = 1.3; robust z-score, replicate 3 = 1.55; inactive.
After knock-down of PRAC2, the screen gave robust z-score, replicate 1 = -1.79; robust z-score, replicate 2 = -1.35; robust z-score, replicate 3 = -1.6; inactive.
Knock-down of GUCA1C came out at: robust z-score, replicate 1 = -2.09; robust z-score, replicate 2 = -1.5; robust z-score, replicate 3 = 0.0024; inactive.
After knock-down of MCM3, the screen gave robust z-score, replicate 1 = -0.104; robust z-score, replicate 2 = -0.217; robust z-score, replicate 3 = -0.55; inactive.
ETV6 gave robust z-score, replicate 1 = 1.5; robust z-score, replicate 2 = 1.19; robust z-score, replicate 3 = 1.15; inactive.
Against TSPAN5, the entry reads robust z-score, replicate 1 = 1.63; robust z-score, replicate 2 = 1.04; robust z-score, replicate 3 = 1.58; inactive.
Knock-down of DNAJB2 gave: robust z-score, replicate 1 = -0.027; robust z-score, replicate 2 = 0.477; robust z-score, replicate 3 = 0.186; inactive.
LOC440438 (retired record) scored robust z-score, replicate 1 = 0.686; robust z-score, replicate 2 = 0.983; robust z-score, replicate 3 = 0.931; inactive.
OR7A17 scored robust z-score, replicate 1 = -0.938; robust z-score, replicate 2 = -0.305; robust z-score, replicate 3 = -0.78; inactive.
TUBB7P gave robust z-score, replicate 1 = 0.132; robust z-score, replicate 2 = 1.13; robust z-score, replicate 3 = 0.587; inactive.
For KIF13A, the entry reads robust z-score, replicate 1 = 0.514; robust z-score, replicate 2 = 0.684; robust z-score, replicate 3 = 0.525; inactive.
Depletion of GLIS1 came out at: robust z-score, replicate 1 = 1.87; robust z-score, replicate 2 = 2.19; robust z-score, replicate 3 = 1.43; inactive.
After knock-down of LOC400968 (retired record) the results were robust z-score, replicate 1 = 0.391; robust z-score, replicate 2 = 0.62; robust z-score, replicate 3 = 0.67; inactive.
